In all, about 140,000 compounds went through this assay and about 4,300 (3.1%) were called active. The inconclusive results got no clear call from the source; some entries with a clear call stand among them for comparison.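 Rule for the calls: active = readout at or below -70, meaning at least 70% loss of cells showing the perinucleolar compartment, a nuclear body marking cancer cells; inconclusive = readout between -30 and a set limit; inactive = the rest.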
Experiment: High Content Assay for Compounds that inhibit the Assembly of the Perinucleolar Compartment;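 note: plate controls were DMSO wells for no effect and camptothecin positive control wells for full effect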
Details: PC3M PTB-GFP, PNC prevalence imaging, 16 h; at 10 µM; hits give low values
Method in brief: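 Read-out is percentage of cells bearing a perinucleolar compartment, from automated 20x imaging of fixed, Hoechst-stained PC3M PTB-GFP cells. Cells were seeded 4 h, then exposed 16 h to compound (23 nl of library stock) in duplicate plates.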

Row | Compound | activity change (PNC), negative = inhibition
1 | CCn1c(CNc2nc(-c3ccccc3)cs2)nnc1SCC(=O)NCc1ccccc1 | inconclusive: -74.9%
2 | COc1cc(/C=N\NC(=O)c2sc(N)nc2C)cc(OC)c1OC | inactive: -18.4%
3 | N=c1c2c(n(Cc3ccc(Cl)c(Cl)c3)c3c1CCC3)CCCC2 | inactive: 2.49%
4 | c1ccc(N2CCN(Cc3cn4cccnc4n3)CC2)cc1 | inactive: -15.5%
5 | O=C(CC(=O)NC1CCCCC1)N/N=C/c1ccccc1Cl | inactive: 34.4%
6 | Cc1ccc(CNC(=O)Cc2ccc(-n3cccc3)cc2)cc1 | inactive: -22.1%
7 | Cc1ccc2nc(C)cc(OCC(=O)O)c2c1 | inconclusive: -35%
8 | CC(=O)c1c(C(C)=O)c(C)n(-c2nc(-c3ccc(Br)cc3)c(C)s2)c1C | inconclusive: -61.1%
9 | O=C1C2C3C=CC(C2C(=O)N1C1CCCCC1)C1C(=O)N(C2CCCCC2)C(=O)C31 (stereo unspecified) | inactive: -2.03%
10 | C=CCNCC(=O)NN=C(c1ccccc1)c1ccccc1 | inconclusive: -38.9%
11 | C/C(=N\NC(=S)NCc1ccccc1)c1ccc(Cl)cc1 | inconclusive: -71.8%
12 | Cc1cc(C)nc(N2CCC(C(=O)Nc3cccc(C(F)(F)F)c3)CC2)n1 | inconclusive: -75%
13 | CC(=O)N1CCC(=NNc2ccc(S(=O)(=O)N3CCOCC3)cc2[N+](=O)[O-])CC1 | inactive: 1.88%
14 | CCc1ccccc1Nc1nc(N)nc(COC(=O)c2cccn2C)n1 | inconclusive: -33.4%
15 | CCc1c(O)nc(SCC(=O)Nc2ccc(C)cc2)n(C2CCCCC2)c1=O | inactive: -20.2%
16 | COc1ccc(/C(N)=N/OC(=O)Cc2cccs2)cc1 | inconclusive: -34.5%
17 | CCOC(=O)c1ccc(NC(=O)NCc2ccn(CC)n2)cc1 | inconclusive: -46.9%
18 | C/C(N)=C(/C#N)C(=O)CSc1nnc(Nc2c(C)cccc2C)s1 | inconclusive: -70.4%
19 | CCOC(=O)c1c(N)sc(C(=O)N2CCCC2)c1C | inconclusive: -48.6%
20 | O=C(Nc1cccc(C(F)(F)F)c1)/C(=C/c1ccco1)NC(=O)c1cccs1 | inactive: 59%
21 | O=C(COC(=O)CNC(=O)c1cccc([N+](=O)[O-])c1)Nc1ccccc1OC(F)F | inactive: -16.7%
22 | CCn1c(COc2ccccc2C)nnc1SCC(=O)CC(=O)Nc1ccccc1OC | inconclusive: -41.4%
23 | O=C(Nc1ccc2c(c1)OCO2)C1CCCN1C(=O)OCc1ccccc1 (stereo unspecified) | active: -127%

Exported with tabs: entries from further up.
Row	Compound	activity change (PNC), negative = inhibition
1	CCn1c(CNc2nc(-c3ccccc3)cs2)nnc1SCC(=O)NCc1ccccc1	inconclusive: -74.9%
2	COc1cc(/C=N\NC(=O)c2sc(N)nc2C)cc(OC)c1OC	inactive: -18.4%
13	CC(=O)N1CCC(=NNc2ccc(S(=O)(=O)N3CCOCC3)cc2[N+](=O)[O-])CC1	inactive: 1.88%
15	CCc1c(O)nc(SCC(=O)Nc2ccc(C)cc2)n(C2CCCCC2)c1=O	inactive: -20.2%
18	C/C(N)=C(/C#N)C(=O)CSc1nnc(Nc2c(C)cccc2C)s1	inconclusive: -70.4%
21	O=C(COC(=O)CNC(=O)c1cccc([N+](=O)[O-])c1)Nc1ccccc1OC(F)F	inactive: -16.7%
23	O=C(Nc1ccc2c(c1)OCO2)C1CCCN1C(=O)OCc1ccccc1 (stereo unspecified)	active: -127%

Continued.

Row | Compound | activity change (PNC), negative = inhibition
24 | O=C(/C=C\NCC(=O)c1ccccc1)c1ccc(F)cc1 | inactive: 55.9%
25 | CCC(C)Cn1c(C)nc2ccccc21 (stereo unspecified) | inconclusive: -35.7%
26 | CCS(=O)(=O)N1Cc2ccccc2CC1C(=O)Nc1nnc(SCc2ccc(F)cc2)s1 (stereo unspecified) | inactive: -8.98%
27 | O=C(Nc1cccnc1)C1CCCN(S(=O)(=O)c2cccc3nsnc23)C1 (stereo unspecified) | inconclusive: -78.6%
28 | Nc1nc2ccc(S(=O)(=O)N3CCCCC3)cc2s1 | inactive: -12.6%
29 | CCOC(=O)C1CCN(C(=O)N(C)C)CC1 | inconclusive: -47.9%
30 | CCc1nnc(NC(=O)CSc2nc3c(cc2C#N)CCC3)s1 | inconclusive: -64.9%
31 | NC(=O)COC(=O)c1oc2ccccc2c1CSc1ccc(Cl)cc1 | inactive: -20.6%
32 | CCCCCC1CC(CC(C)C(=O)Nc2nncs2)C(=O)O1 (stereo unspecified) | inactive: 12.3%
33 | CCOc1ccc2nc(N3CCOCC3)nc(C)c2c1 | inconclusive: -77.5%
34 | COc1ccc(NCC(=O)Nc2ccc(Cl)cc2C)c(OC)c1 | inconclusive: -53.9%
35 | Cc1cc(C)cc(NC(=O)CSc2nc3[nH]ncc3c(=O)[nH]2)c1 | inconclusive: -31.9%
36 | COc1cc(/C=C/C(=O)OCC(=O)NC(=O)NC(C)C)ccc1OCC#N | active: -85.1%
37 | CCCN(Cc1cc2cc(C)ccc2[nH]c1=O)C(=O)c1cccc(OC)c1 | inactive: -5.24%
38 | CCc1ccc(NC(=O)CS(=O)CC(=O)Nc2ccc(F)cc2F)cc1 (stereo unspecified) | inconclusive: -39.3%
39 | O=C(NC(=S)NCc1ccccc1)c1ccc2c(c1)OCO2 | inactive: 17.8%
40 | CCCC(=O)Nc1ccc(C(=O)N/N=C/c2ccc([N+](=O)[O-])o2)cc1 | inconclusive: -63.5%
41 | O=C(NC1CCCc2ccccc21)C1CCN(S(=O)(=O)c2cccc3nonc23)CC1 (stereo unspecified) | inactive: 23.8%
42 | CCOC(=O)Cc1csc(NC(=O)CN(C)S(=O)(=O)c2ccc3c(c2)CCC(=O)N3)n1 | inconclusive: -50.8%
43 | CC1(C)Cc2c(C#N)c(SCC(=O)c3ccccc3)nc(N3CCOCC3)c2CS1 | inactive: -21.7%
44 | CC(OC(=O)C1CC(O)CN1S(=O)(=O)c1ccccc1[N+](=O)[O-])C(=O)N1CCCCC1 (stereo unspecified) | inconclusive: -31.8%
45 | CC1CC(C)CN(c2ncc3c(n2)CC(c2ccccc2Cl)CC3=O)C1 (stereo unspecified) | inconclusive: -53%
46 | O=C(c1cccs1)C1C(c2ccc(Br)cc2)NC(=S)NC1(O)C(F)(F)F (stereo unspecified) | inconclusive: -48.6%

Row | Compound | activity change (PNC), negative = inhibition
47 | COC(=O)c1cccc(NC(=O)CSc2nnc(COc3ccccc3)n2C)c1 | active: -126%
48 | CCCS(=O)(=O)N1CCC(C(=O)NC2CCCCC2C)CC1 (stereo unspecified) | inactive: 15%
49 | CCOc1cc(CNc2ccc(N(C)C)cc2)cc(Br)c1OCC(=O)NC(C)(C)C | inconclusive: -45.1%
50 | O=C(COc1cc(=O)n2c(n1)SCCC2)c1ccccc1 | inactive: -3.87%
51 | Cc1cccc(NC(=O)COC(=O)c2ccc3c(=O)n4c(nc3c2)CCC4)c1 | inconclusive: -40.6%
52 | CCOC(=O)C1=NN(C(C)=O)C2(CC(=O)N(c3cccc(C)c3)C2=O)C1 (stereo unspecified) | inconclusive: -79.5%
53 | CCSc1nnc(NC(=O)C2CC=CCC2C(=O)O)s1 (stereo unspecified) | inactive: 13.7%
54 | N#Cc1c(NC(=S)NC(=O)c2ccccc2)sc2c1CCCC2 | inconclusive: -54%
55 | C=CCOc1ccc(/C=C/C(=O)Nc2ccc(C(=O)NC)cc2)cc1 | inconclusive: -48.9%
56 | CS(=O)(=O)NCCSCc1ccccc1 | inconclusive: -54.1%
57 | CCOc1ccc2cc(C3CC(c4ccco4)=NN3S(=O)(=O)c3ccccc3)c(Cl)nc2c1 (stereo unspecified) | inconclusive: -35.5%
58 | CN1CCC2(CC1)N=C(c1ccc(F)cc1)C(=S)N2C(=O)c1ccccc1 | inactive: 56.8%
59 | O=c1c(O)c(-c2cccs2)oc2ccc(Cl)cc12 | inconclusive: -72.9%
60 | O=C(Nc1nc(-c2cc(Cl)sc2Cl)cs1)c1ccccc1 | inconclusive: -78%
61 | COc1ccc(NC(=O)c2cn(CCC#N)nc2-c2cccs2)cc1 | inactive: 8.29%
62 | CCNc1c([N+](=O)[O-])ncn1C | inconclusive: -31.9%
63 | CCCCCCOC(=O)C[N+](C)(C)CCOC1CC2CCC1(C)C2(C)C (stereo unspecified) | inactive: 18.8%
64 | CCOC(=O)c1sc(NC(=O)CSc2n[nH]c(CC(C)C)n2)nc1C | inactive: 13.2%
65 | Cc1ccc(N2C(=O)C3C4C=CC(CNC(=S)Nc5ccc(Cl)cc5)(O4)C3C2=O)cc1 (stereo unspecified) | inconclusive: -39.9%
66 | O=C(Cc1sc(-c2ccccc2)nc1-c1ccccc1)Nc1ccccc1 | inconclusive: -36.5%
67 | CC1=C/C(=C\c2ccc3c(c2)OCO3)C(=O)S1 | active: -85.2%
68 | Cc1cccc(N(CC(=O)N/N=C/c2cc([N+](=O)[O-])ccc2Cl)S(C)(=O)=O)c1C | inactive: 1.66%
69 | O=C(COc1ccccc1)N1c2ccccc2Sc2ccccc21 | inconclusive: -60.5%

Row | Compound | activity change (PNC), negative = inhibition
70 | CC(C)CCNC(=O)C12CN(Cc3ccccc3)CC1C(c1ccc([N+](=O)[O-])cc1)=NO2 (stereo unspecified) | inconclusive: -33.6%
71 | CCCS(=O)(=O)Nc1c(OC)ccc2c1c(C(=O)OCC)c(C)n2C | inconclusive: -36.7%
72 | Cc1cccc2c1nc(-c1ccccc1)n1nnnc21 | inconclusive: -37.6%
73 | O=c1[nH]c2cc3c(cc2cc1CN(CCc1ccccc1)Cc1nnnn1C1CCCC1)OCCO3 | inconclusive: -54.9%
74 | COc1ccc(OC)c(CNc2ccc(F)c(Cl)c2)c1 | inconclusive: -46.5%
75 | NC(=O)CSc1nnc2n(-c3ccccc3)c(=O)c3c4c(sc3n12)CCCCC4 | active: -81.4%
76 | COc1ccc(OCc2nn3c(-c4ccccn4)nnc3s2)cc1 | inconclusive: -44.5%
77 | CSc1ncc(Cl)c(C(=O)Nc2ccccc2Cl)n1 | inconclusive: -34.9%
78 | CC1(C)CC(CC(=O)NNc2nc(-c3ccccc3)cs2)C(=O)O1 (stereo unspecified) | active: -83.6%
79 | CCOC(=O)C(CC(=O)O)N1CCCCC1 (stereo unspecified) | inconclusive: -33.2%
80 | COc1ccc(-c2noc(C3CCCN(C(=O)CCc4ccccc4)C3)n2)cc1 (stereo unspecified) | inconclusive: -60.5%
81 | CCCCN(CC)C(=O)c1ccc(Cl)c(Cl)c1 | inactive: 22.3%
82 | Cc1ccc(CC(=O)Nc2nc3c(s2)CCCC3)cc1 | active: -100%
83 | CC1(C)CC(=O)C2=C(C1)OC(N)=C(C#N)C2c1ccccc1 (stereo unspecified) | inactive: 31.2%
84 | COc1ccc(C(=O)Nc2ccc3[nH]c(-c4cccc(OC)c4)cc(=O)c3c2)cc1 | active: -119%
85 | Cc1onc(-c2ccccc2)c1C(=O)NC(=S)NNC(=O)c1ccc(O)cc1O | inactive: -6.18%
86 | NC(=O)C1(N2CCCCC2)CCN(C(=O)CCCn2c(=O)[nH]c3ccsc3c2=O)CC1 | inactive: 0.215%
87 | O=C(Cn1c(=O)n(Cc2ccco2)c(=O)c2c3c(sc21)CCCCC3)Nc1ccccc1 | inactive: 6.2%
88 | Brc1ccc(CSc2ncn[nH]2)cc1 | inconclusive: -33.7%
89 | COc1cc2c(cc1OC)CN(C(=O)CSc1nnc3scc(-c4ccccc4)n13)CC2 | inconclusive: -32.3%
90 | Cc1ccc(S(=O)(=O)NCCCC(=O)C=[N+]=[N-])cc1 | active: -109%
91 | Cc1cccc(C)c1NC(=O)CSc1nnc(Cc2ccccc2)o1 | inactive: 113%

Source: PubChem BioAssay AID2417 (National Center for Advancing Translational Sciences (NCATS), 2010)
